# In the supplement of paper PMC8728848:
# Some of the results follow.
# B1: Aap brpt (Staphylococcus epidermidis) (protein)
# chain: VDGDPITSTEEIPFDKKREFDPNLAPGTEKVVQKGEPGTKTITTPTTKNPLTGEKVGEGEPTEKITKQPVDEIVHYGGEEIKTGHKDEFDPNAPKGSQTTQPGKPGVKNPDTGEVVTPPVDDVTKYGPVDGDPITSTEEIPFDKKREFDPNLAPGTEKVVQKGEPGTKTITTPTTKNPLTGEKVGEGEPTEKITKQPVDEIVHYGGEEIKPGHKDEFDPNAPKGSQEDVPGKPGVKNPDTGEVVTPPVDDVTKYGPVDGDSITSTEEIPFDKKREFDPNLAPGTEKVVQKGEPGTKTITTPTTKNPLTGEKVGEGEPTEKITKQPVDEIVHYGGEQIPQGHKDEFDPNAPVDSKTEVPGKPGVKNPDTGEVVTPPVDDVTKYGPVDGDSITSTEEIPFDKKREFDPNLAPGTEKVVQKGEPGTKTITTPTTKNPLTGEKVGEGKSTEKVTKQPVDEIVEYGPTK
# Tests used:
# Experiment in all cases: glycan array binding signal (z-score within array); higher = stronger binding
# Settings in all cases: glycan notation: IUPAC condensed, linker removed
# GalNAc(b1-3)Gal = molecular target: GalNAc(b1-3)Gal
# In short: (§1)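 Arrays were curated from the Consortium for Functional Glycomics database, 3228 in total, and kept only where the protein sequence was available. Binding is expressed as a within-array Z-score. This score was averaged across arrays of the same protein sequence at different concentrations or buffers and across linkers, and negative values can be read as non-binding.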
# [1] = molecular target: GalNAc(b1-3)Gal(a1-4)Gal(b1-4)GlcNAc
# In short: as §1
# [2] = molecular target: GalNAc(b1-3)Gal(a1-4)Gal(b1-4)GlcNAc(b1-3)Gal(b1-4)Glc
# In short: as §1
# [3] = molecular target: GalNAc(b1-3)Gal(a1-6)Gal(b1-4)Glc
# In short: as §1
# GalNAc(b1-3)GalNAc = molecular target: GalNAc(b1-3)GalNAc
# In short: as §1
# GalNAc(b1-3)GlcNAc = molecular target: GalNAc(b1-3)GlcNAc
# In short: as §1
# GalNAc(b1-4)Gal(b1-4)Glc = molecular target: GalNAc(b1-4)Gal(b1-4)Glc
# In short: as §1
# GalNAc(b1-4)GlcNAc = molecular target: GalNAc(b1-4)GlcNAc
# In short: as §1
# [4] = molecular target: GalNAc(b1-4)GlcNAc(b1-2)Man
# In short: as §1
# [5] = molecular target: GalNAc(b1-4)GlcNAc(b1-2)Man(a1-3)[GalNAc(b1-4)GlcNAc(b1-2)Man(a1-6)]Man(b1-4)GlcNAc(b1-4)GlcNAc
# In short: as §1
# [6] = molecular target: GalNAc(b1-4)GlcNAc(b1-3)GalNAc(b1-4)GlcNAc
# In short: as §1
# GalNAc(b1-4)GlcNAc6S = molecular target: GalNAc(b1-4)GlcNAc6S
# In short: as §1
# GalNAc(b1-6)GalNAc = molecular target: GalNAc(b1-6)GalNAc
# In short: as §1
# GalNAc3S(b1-4)GlcNAc = molecular target: GalNAc3S(b1-4)GlcNAc
# In short: as §1
# GalNAc3S(b1-4)GlcNAc3S = molecular target: GalNAc3S(b1-4)GlcNAc3S
# In short: as §1
# [7] = molecular target: GalNAc3S(b1-4)[Fuc(a1-3)]GlcNAc
# In short: as §1
# GalNAc4S6S(b1-4)GlcNAc = molecular target: GalNAc4S6S(b1-4)GlcNAc
# In short: as §1
# GalNAc6S(b1-4)GlcNAc = molecular target: GalNAc6S(b1-4)GlcNAc
# In short: as §1
# Glc(a1-4)Glc = molecular target: Glc(a1-4)Glc
# In short: as §1
# [8] = molecular target: Glc(a1-4)Glc(a1-4)Glc(a1-4)Glc
# In short: as §1
# Glc(a1-6)Glc(a1-6)Glc = molecular target: Glc(a1-6)Glc(a1-6)Glc
# In short: as §1
# [9] = molecular target: Glc(a1-6)Glc(a1-6)Glc(a1-6)Glc
# In short: as §1
# Glc(b1-4)Glc = molecular target: Glc(b1-4)Glc
# In short: as §1
# Glc(b1-6)Glc = molecular target: Glc(b1-6)Glc
# In short: as §1
# GlcA(b1-3)Gal = molecular target: GlcA(b1-3)Gal
# In short: as §1
# GlcA(b1-3)GlcNAc = molecular target: GlcA(b1-3)GlcNAc
# In short: as §1
# GlcA(b1-6)Gal = molecular target: GlcA(b1-6)Gal
# In short: as §1
# [10] = molecular target: GlcA3S(b1-3)Gal(b1-4)GlcNAc(b1-2)Man
# In short: as §1
# [11] = molecular target: GlcA3S(b1-3)Gal(b1-4)GlcNAc(b1-3)Gal(b1-4)Glc
# In short: as §1
# [12] = molecular target: GlcNAc(a1-3)Gal(b1-4)GlcNAc
# In short: as §1
# [13] = molecular target: GlcNAc(a1-4)Gal(b1-3)GlcNAc
# In short: as §1
# [14] = molecular target: GlcNAc(a1-4)Gal(b1-4)GalNAc
# In short: as §1
# [15] = molecular target: GlcNAc(a1-4)Gal(b1-4)GlcNAc
# In short: as §1
# [16] = molecular target: GlcNAc(a1-4)Gal(b1-4)GlcNAc(b1-3)Gal(b1-4)Glc
# In short: as §1
# [17] = molecular target: GlcNAc(a1-4)Gal(b1-4)GlcNAc(b1-3)Gal(b1-4)GlcNAc
# In short: as §1
# [18] = molecular target: GlcNAc(a1-4)Gal(b1-4)GlcNAc(b1-3)Gal(b1-4)GlcNAc(b1-3)Gal(b1-4)GlcNAc
# In short: as §1
# [19] = molecular target: GlcNAc(a1-4)Gal(b1-4)GlcNAc(b1-3)Gal(b1-4)[Fuc(a1-3)]GlcNAc(b1-3)Gal(b1-4)[Fuc(a1-3)]GlcNAc
# In short: as §1
# [20] = molecular target: GlcNAc(a1-6)Gal(b1-4)GlcNAc
# In short: as §1
binder,measurement,setting,value
B1,glycan array binding signal (z-score),GalNAc(b1-3)Gal,0.326
same,glycan array binding signal (z-score),[1],1.25
same,glycan array binding signal (z-score),[2],0.66
same,glycan array binding signal (z-score),[3],-0.619
same,glycan array binding signal (z-score),GalNAc(b1-3)GalNAc,0.52
same,glycan array binding signal (z-score),GalNAc(b1-3)GlcNAc,0.583
same,glycan array binding signal (z-score),GalNAc(b1-4)Gal(b1-4)Glc,0.726
same,glycan array binding signal (z-score),GalNAc(b1-4)GlcNAc,1.21
same,glycan array binding signal (z-score),[4],-2.06
same,glycan array binding signal (z-score),[5],-0.761
same,glycan array binding signal (z-score),[6],-1.73
same,glycan array binding signal (z-score),GalNAc(b1-4)GlcNAc6S,0.443
same,glycan array binding signal (z-score),GalNAc(b1-6)GalNAc,-0.433
same,glycan array binding signal (z-score),GalNAc3S(b1-4)GlcNAc,0.056
same,glycan array binding signal (z-score),GalNAc3S(b1-4)GlcNAc3S,-0.264
same,glycan array binding signal (z-score),[7],0.52
same,glycan array binding signal (z-score),GalNAc4S6S(b1-4)GlcNAc,1.49
same,glycan array binding signal (z-score),GalNAc6S(b1-4)GlcNAc,1.25
same,glycan array binding signal (z-score),Glc(a1-4)Glc,-1.07
same,glycan array binding signal (z-score),[8],1.83
same,glycan array binding signal (z-score),Glc(a1-6)Glc(a1-6)Glc,0.623
same,glycan array binding signal (z-score),[9],-1.53
same,glycan array binding signal (z-score),Glc(b1-4)Glc,-1.47
same,glycan array binding signal (z-score),Glc(b1-6)Glc,0.662
same,glycan array binding signal (z-score),GlcA(b1-3)Gal,-0.602
same,glycan array binding signal (z-score),GlcA(b1-3)GlcNAc,-0.165
same,glycan array binding signal (z-score),GlcA(b1-6)Gal,-0.324
same,glycan array binding signal (z-score),[10],0.61
same,glycan array binding signal (z-score),[11],-0.353
same,glycan array binding signal (z-score),[12],0.277
same,glycan array binding signal (z-score),[13],-0.124
same,glycan array binding signal (z-score),[14],-1.15
same,glycan array binding signal (z-score),[15],0.955
same,glycan array binding signal (z-score),[16],-1.29
same,glycan array binding signal (z-score),[17],0.49
same,glycan array binding signal (z-score),[18],0.541
same,glycan array binding signal (z-score),[19],-0.133
same,glycan array binding signal (z-score),[20],0.058

# For reference, some entries already given:
binder,measurement,setting,value
B1,glycan array binding signal (z-score),[2],0.66
same,glycan array binding signal (z-score),[3],-0.619
